In publication PMC11937338:
These are yes or no findings as the source states them, for the method shown. In cells and extracts the contact can be indirect. Some results given as binding are weak or reduced against the parent protein; the word gives no strength.

Amino acid sequences for entries named in this document (tags omitted).
UniProt Q9Z0Z3: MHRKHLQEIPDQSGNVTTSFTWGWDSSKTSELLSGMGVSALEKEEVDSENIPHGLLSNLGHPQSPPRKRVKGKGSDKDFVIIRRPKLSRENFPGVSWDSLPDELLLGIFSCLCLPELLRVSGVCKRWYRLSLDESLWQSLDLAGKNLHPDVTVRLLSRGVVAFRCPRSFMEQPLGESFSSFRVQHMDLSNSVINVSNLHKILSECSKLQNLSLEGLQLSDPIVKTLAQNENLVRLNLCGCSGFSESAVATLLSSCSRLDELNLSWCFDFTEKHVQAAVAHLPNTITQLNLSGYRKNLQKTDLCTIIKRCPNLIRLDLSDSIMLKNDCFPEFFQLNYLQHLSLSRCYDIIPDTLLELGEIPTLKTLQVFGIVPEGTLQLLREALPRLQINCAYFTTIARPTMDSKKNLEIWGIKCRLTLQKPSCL
UniProt Q9WTX6: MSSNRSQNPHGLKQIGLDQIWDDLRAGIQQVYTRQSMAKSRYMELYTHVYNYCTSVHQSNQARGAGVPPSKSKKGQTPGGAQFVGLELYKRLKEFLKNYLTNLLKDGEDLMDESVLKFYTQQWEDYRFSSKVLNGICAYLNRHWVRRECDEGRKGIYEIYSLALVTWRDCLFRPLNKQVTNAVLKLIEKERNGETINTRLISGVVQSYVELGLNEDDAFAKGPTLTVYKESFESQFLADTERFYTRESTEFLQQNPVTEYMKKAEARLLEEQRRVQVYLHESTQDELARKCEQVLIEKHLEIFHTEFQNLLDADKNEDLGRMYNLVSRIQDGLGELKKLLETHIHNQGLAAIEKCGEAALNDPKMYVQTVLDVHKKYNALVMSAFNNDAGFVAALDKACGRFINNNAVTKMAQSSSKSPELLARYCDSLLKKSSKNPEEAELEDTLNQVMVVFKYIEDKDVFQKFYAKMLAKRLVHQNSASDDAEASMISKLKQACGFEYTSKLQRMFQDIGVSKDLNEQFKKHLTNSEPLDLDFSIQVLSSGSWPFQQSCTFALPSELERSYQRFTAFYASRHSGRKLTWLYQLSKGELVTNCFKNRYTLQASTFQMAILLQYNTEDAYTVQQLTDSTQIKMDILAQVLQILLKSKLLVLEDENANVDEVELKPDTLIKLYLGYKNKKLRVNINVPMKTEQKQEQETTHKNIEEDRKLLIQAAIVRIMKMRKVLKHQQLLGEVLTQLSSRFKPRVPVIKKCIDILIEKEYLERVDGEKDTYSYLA
UniProt P11440: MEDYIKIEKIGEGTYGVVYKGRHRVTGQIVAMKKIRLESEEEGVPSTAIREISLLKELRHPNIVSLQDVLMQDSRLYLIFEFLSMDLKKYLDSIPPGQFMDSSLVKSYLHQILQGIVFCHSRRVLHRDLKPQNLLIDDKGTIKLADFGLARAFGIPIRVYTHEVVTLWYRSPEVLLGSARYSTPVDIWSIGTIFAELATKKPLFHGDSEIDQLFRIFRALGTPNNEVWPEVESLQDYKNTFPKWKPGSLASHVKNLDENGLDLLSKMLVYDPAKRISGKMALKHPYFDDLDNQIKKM

Target: T1, Coactivator-associated arginine methyltransferase 1 (mouse (endogenous in 10T1/2 and MEF)) (UniProt Q9WVG6)
T1 sequence: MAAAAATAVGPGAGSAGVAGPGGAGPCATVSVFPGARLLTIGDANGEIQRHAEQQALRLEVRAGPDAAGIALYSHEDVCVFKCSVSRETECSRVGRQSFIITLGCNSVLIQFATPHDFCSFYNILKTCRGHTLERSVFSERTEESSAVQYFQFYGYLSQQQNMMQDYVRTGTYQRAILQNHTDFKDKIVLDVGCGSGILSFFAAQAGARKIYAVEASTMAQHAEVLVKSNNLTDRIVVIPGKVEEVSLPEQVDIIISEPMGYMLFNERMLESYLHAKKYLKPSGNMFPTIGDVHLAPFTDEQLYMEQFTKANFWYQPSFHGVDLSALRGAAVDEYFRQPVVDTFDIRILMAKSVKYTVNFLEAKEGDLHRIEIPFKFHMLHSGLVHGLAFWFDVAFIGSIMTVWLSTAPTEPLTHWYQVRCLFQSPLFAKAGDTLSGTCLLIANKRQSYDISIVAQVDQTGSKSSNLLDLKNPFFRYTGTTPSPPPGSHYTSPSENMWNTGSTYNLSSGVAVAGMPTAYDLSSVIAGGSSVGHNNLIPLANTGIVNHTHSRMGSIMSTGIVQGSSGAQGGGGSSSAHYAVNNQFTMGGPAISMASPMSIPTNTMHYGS
Experiment: co-IP; IP with anti-CARM1 antibody from 10T1/2 cell lysate (RIPA buffer), protein A/G Sepharose, western blot

Row | binding | Substance
1 | binds | S-phase kinase-associated protein 2 (from UniProt Q9Z0Z3 1-424)
2 | binds | Cullin-1 (from UniProt Q9WTX6 1-776)
3 | binds | Cyclin-dependent kinase 1 (from UniProt P11440 1-297)
